Reference: publication PMC2868067 (Molecular cancer therapeutics, 2010)
pIC50: −log10 of the molar value.

Test system: kinases in the Src family
Settings: read-out: apparent IC50, Srctide; multiplexed, treated K-562 lysates (Figure 6A)

Work on Cc1ccc(NC(=O)c2ccc(CN3CCN(C)CC3)cc2)cc1Nc1nccc(-c2cccnc2)n1 [imatinib] yielded a pIC50 of 5.25.
